Results: PMC9896067 (Advanced Science, 2022)
Strings that start with PEPTIDE1 are HELM notation: dots part the residues, brackets hold end groups and non-standard residues.

Assay: general procedure: Fmoc solid-phase peptide synthesis
Conditions: whole synthesis

PEPTIDE1{[BP].C.F.F.F.V.L.K.L.A.K.L.A.K.D.E.V.D.A.K.R.G.A.R.S.T.A}$$$$V2.0
final HPLC purity: 96%
